PubChem BioAssay AID1259331 | Drosophila RNAi Screening Center – 2017

- Aim: 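Knock-downs that alter ATP level after a high zinc chloride dose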 (primary screen)
- System: Drosophila S2R+ cells
- Reagents: long dsRNA against Drosophila genes
- Timing: 5 days (4 days knock-down, then 1 day zinc)
- Challenge: zinc chloride at 15 mM final level for 1 day
- Detection: 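Total cellular ATP measured by luciferase luminescence as a viability proxy, turned into Z scores from three plate copies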
- Scale: mean Z score: higher = more ATP than other wells, better survival under zinc; ATP luminescence: higher = more ATP, more viable cells
- Call rule: 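a reagent is called a hit when its Z score is above 1.5 or below -1.5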
- Calls: active = hit, ATP up or down; inactive = not a hit
Here is one part, drawn at random, of about 3,100 deposited reagents. Over the whole deposit, 126 (4.1%) were called active. 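Calls are per reagent; zinc was so toxic that few knock-downs lowered ATP further, so most hits raise ATP.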 The raw values are shown without normalisation. A plus sign joins genes that one reagent is predicted to hit. Reagent sequences are not shown. The record does not give: the amount of reagent.

| Target gene | dsRNA | mean Z score | ATP luminescence, replicate 1 | ATP luminescence, replicate 2 | Outcome |
| --- | --- | --- | --- | --- | --- |
| NKCC (GeneID 40663) | DRSC12140 | -0.09 | 30045 | 30799 | inactive |
| NKCC (GeneID 40663) | DRSC12311 | -0.229 | 75295 | 55488 | inactive |
| Shawl (GeneID 5740840) | DRSC02209 | 1.66 | 77148 | 62930 | active |
| Shawl (GeneID 5740840) | DRSC02748 | 0.409 | 83299 | 69052 | inactive |
| Shawl (GeneID 5740840) | DRSC24307 | -0.615 | 54630 | 49155 | inactive |
| Or10a (GeneID 32086) | DRSC20264 | 0.477 | 67509 | 80561 | inactive |
| Or10a (GeneID 32086) | DRSC27634 | 0.216 | 63307 | 57734 | inactive |
| AkhR (GeneID 33942) | DRSC03329 | -0.0696 | 56225 | 54184 | inactive |
| AkhR (GeneID 33942) | DRSC28694 | -0.702 | 59432 | 41548 | inactive |
| ATP8A (GeneID 36488) | DRSC06643 | -0.772 | 29530 | 20600 | inactive |
| ATP8A (GeneID 36488) | DRSC06644 | -0.517 | 65451 | 61318 | inactive |
| crq (GeneID 33219) | DRSC00810 | -0.289 | 42487 | 42781 | inactive |
| CG31445 (GeneID 326140) | DRSC14443 | -0.159 | 41801 | 46023 | inactive |
| CG31445 (GeneID 326140) | DRSC28642 | -0.485 | 66771 | 40828 | inactive |
| GABA-B-R2 (GeneID 42561) | DRSC28127 | 0.369 | 69481 | 63890 | inactive |
| GABA-B-R2 (GeneID 42561) | DRSC39461 | -0.0762 | 57700 | 46211 | inactive |
| Octbeta3R (GeneID 3885573) | DRSC21853 | -0.281 | 43159 | 42868 | inactive |
| Octbeta3R (GeneID 3885573) | DRSC25327 | 0.729 | 71762 | 73512 | inactive |
| CG2991 (GeneID 33488) | DRSC00559 | -0.26 | 52024 | 53121 | inactive |
| CG2991 (GeneID 33488) | DRSC26300 | 0.632 | 69275 | 69738 | inactive |
| Acp95EF + Spase22-23 | DRSC14102 | -0.162 | 34879 | 55488 | inactive |
| GC1 (GeneID 41448) | DRSC15322 | -0.451 | 34158 | 49898 | inactive |
| GC1 (GeneID 41448) | DRSC25627 | -0.424 | 53224 | 56534 | inactive |
| CG32206 (GeneID 40105) | DRSC10095 | -0.117 | 77045 | 58728 | inactive |
| CG32206 (GeneID 40105) | DRSC10096 | 0.108 | 44720 | 43725 | inactive |
| Tomosyn (GeneID 32217) | DRSC19842 | 0.772 | 81179 | 76462 | inactive |
| Tomosyn (GeneID 32217) | DRSC25047 | 0.282 | 60534 | 55985 | inactive |
| 5-HT7 (GeneID 43669) | DRSC12635 | -0.503 | 39127 | 39765 | inactive |
| 5-HT7 (GeneID 43669) | DRSC24891 | 0.352 | 59757 | 58368 | inactive |
| kek2 (GeneID 34582) | DRSC03552 | 0.841 | 60306 | 36911 | inactive |
| kek2 (GeneID 34582) | DRSC26189 | -0.146 | 51801 | 54287 | inactive |
| CG32986 (GeneID 34208) | DRSC02509 | 0.00568 | 52658 | 38417 | inactive |
| CG32986 (GeneID 34208) | DRSC39699 | 0.171 | 63547 | 61901 | inactive |
| Gr22a (GeneID 117500) | DRSC26809 | 0.168 | 63204 | 61284 | inactive |
| Tehao (GeneID 34761) | DRSC03449 | -0.335 | 47686 | 44445 | inactive |
| Tehao (GeneID 34761) | DRSC39803 | -0.101 | 50309 | 59569 | inactive |
| Gr59f (GeneID 37726) | DRSC04499 | -0.0597 | 49553 | 39130 | inactive |
| Gr59f (GeneID 37726) | DRSC27044 | -0.561 | 41325 | 55385 | inactive |
| CG8850 (GeneID 36331) | DRSC07287 | -0.011 | 79378 | 78846 | inactive |
| CG8850 (GeneID 36331) | DRSC25965 | 0.27 | 56671 | 63787 | inactive |
| Ddr (GeneID 3346209) | DRSC02150 | -0.279 | 78057 | 68278 | inactive |
| Ddr (GeneID 3346209) | DRSC03229 | -0.362 | 42405 | 42439 | inactive |
| Ddr (GeneID 3346209) | DRSC22818 | -0.0103 | 48509 | 46674 | inactive |
| alien + CG17906 | DRSC02641 | 0.465 | 53762 | 41102 | inactive |
| alien + CG17906 | DRSC24008 | -0.0794 | 59329 | 61026 | inactive |
| CG34030 (GeneID 3885636) | DRSC08866 | -0.0766 | 38833 | 42349 | inactive |
| aralar1 (GeneID 43616) | DRSC16901 | -0.114 | 46588 | 43370 | inactive |
| aralar1 (GeneID 43616) | DRSC29693 | -0.00464 | 57382 | 65333 | inactive |
| Ir7e (GeneID 7354417) | DRSC18011 | -0.0065 | 49846 | 38753 | inactive |
| CG33281 (GeneID 2768938) | DRSC00421 | -0.417 | 39850 | 40468 | inactive |
| Gr98c (GeneID 117336) | DRSC26546 | 0.216 | 68126 | 56465 | inactive |
| Gr98c (GeneID 117336) | DRSC39650 | -0.325 | 52984 | 59071 | inactive |
| CG33110 (GeneID 42659) | DRSC16137 | 0.95 | 42089 | 69841 | inactive |
| CG33110 (GeneID 42659) | DRSC27221 | -0.469 | 40313 | 60786 | inactive |
| CG8468 (GeneID 36577) | DRSC07190 | -0.241 | 68881 | 66943 | inactive |
| CG8468 (GeneID 36577) | DRSC26347 | 0.261 | 57768 | 56619 | inactive |
| CR7448 (GeneID 26067587) | DRSC11828 | -0.286 | 28142 | 33250 | inactive |
| CR7448 (GeneID 26067587) | DRSC22485 | 1.06 | 61558 | 75038 | inactive |
| ppk29 (GeneID 37844) | DRSC04205 | -0.348 | 45068 | 37279 | inactive |
| ppk29 (GeneID 37844) | DRSC39599 | -0.53 | 58025 | 49606 | inactive |
| Or22a (GeneID 33335) | DRSC26009 | 0.357 | 61215 | 61078 | inactive |
| ort (GeneID 45910) | DRSC16240 | -0.134 | 39216 | 58471 | inactive |
| ort (GeneID 45910) | DRSC39620 | 0.812 | 71402 | 79961 | inactive |
| Asph (GeneID 36778) | DRSC06783 | 0.326 | 70150 | 78366 | inactive |
| Asph (GeneID 36778) | DRSC29507 | 0.764 | 73855 | 72483 | inactive |
| CG10226 (GeneID 38725) | DRSC09715 | -0.377 | 28827 | 29638 | inactive |
| ed (GeneID 33619) | DRSC00350 | 0.094 | 54253 | 61047 | inactive |
| ed (GeneID 33619) | DRSC00439 | 0.0406 | 37245 | 60015 | inactive |
| ed (GeneID 33619) | DRSC00478 | 0.173 | 58057 | 41342 | inactive |
